Paper PMC11180018
These are yes or no findings as the source states them, for the method shown. In cells and extracts the contact can be indirect. Some entries that bind do so weakly or less than the wild type. Tags and fused reporters may be left off the sequences shown. Blank lines part the entries; values can stand above or below the molecule they belong to.

Protein sequences, listed by entry. Tags and fused reporters are not part of them.
UniProt P54609: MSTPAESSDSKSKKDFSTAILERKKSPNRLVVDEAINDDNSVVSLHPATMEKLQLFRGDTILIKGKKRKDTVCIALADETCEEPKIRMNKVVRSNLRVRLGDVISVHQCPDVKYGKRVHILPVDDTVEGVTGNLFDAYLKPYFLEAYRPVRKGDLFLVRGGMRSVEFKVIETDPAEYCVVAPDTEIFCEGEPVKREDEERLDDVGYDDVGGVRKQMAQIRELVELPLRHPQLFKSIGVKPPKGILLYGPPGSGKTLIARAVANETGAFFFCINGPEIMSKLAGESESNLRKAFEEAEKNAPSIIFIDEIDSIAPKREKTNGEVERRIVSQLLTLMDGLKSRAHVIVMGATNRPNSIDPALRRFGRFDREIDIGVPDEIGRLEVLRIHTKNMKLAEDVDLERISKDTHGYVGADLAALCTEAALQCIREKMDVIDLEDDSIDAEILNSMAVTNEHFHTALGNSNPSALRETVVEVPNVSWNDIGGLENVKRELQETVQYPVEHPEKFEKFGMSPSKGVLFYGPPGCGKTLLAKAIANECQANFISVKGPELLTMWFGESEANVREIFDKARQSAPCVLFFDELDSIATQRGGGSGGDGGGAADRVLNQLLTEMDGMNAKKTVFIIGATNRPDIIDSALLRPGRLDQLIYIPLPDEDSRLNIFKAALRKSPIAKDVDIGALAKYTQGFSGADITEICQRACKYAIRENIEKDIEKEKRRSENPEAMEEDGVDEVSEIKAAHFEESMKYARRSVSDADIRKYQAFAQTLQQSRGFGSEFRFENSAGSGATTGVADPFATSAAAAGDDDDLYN
UniProt Q39255: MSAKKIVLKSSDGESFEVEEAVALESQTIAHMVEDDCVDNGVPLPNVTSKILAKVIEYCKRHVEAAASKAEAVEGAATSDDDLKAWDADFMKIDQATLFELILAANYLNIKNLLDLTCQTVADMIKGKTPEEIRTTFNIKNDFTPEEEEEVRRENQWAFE

Key:
EID1 (BiFC fusion) = molecular target: T1, EID1 (BiFC fusion) (UniProt Q8LEA8); assay: split reporter; BiFC (nYFP/cYFP) in transiently transfected Arabidopsis leaf mesophyll protoplasts, overnight incubation in darkness
T1 sequence: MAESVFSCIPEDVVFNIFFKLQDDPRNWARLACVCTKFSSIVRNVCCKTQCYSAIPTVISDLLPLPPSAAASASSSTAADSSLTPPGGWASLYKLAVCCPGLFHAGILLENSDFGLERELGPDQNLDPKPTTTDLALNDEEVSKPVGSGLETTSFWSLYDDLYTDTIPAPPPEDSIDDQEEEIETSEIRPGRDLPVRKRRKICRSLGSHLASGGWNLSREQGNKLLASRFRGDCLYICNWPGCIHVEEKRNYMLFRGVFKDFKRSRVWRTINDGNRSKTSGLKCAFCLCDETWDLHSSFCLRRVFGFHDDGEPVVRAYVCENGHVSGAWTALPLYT

[1] = molecular target: CDC48A-FLAG (Arabidopsis thaliana) (UniProt P54609); assay: co-IP; lysates of Arabidopsis seedlings stably expressing WOX2-YFP-GR and CDC48A-FLAG after 4 h 10 μM DEX; immunoprecipitated by anti-GFP beads or anti-FLAG beads (µMACS kit); Western blots with anti-GFP and anti-FLAG
[2] = molecular target: T2, WOX2 fused to nYFP (BiFC) (Arabidopsis thaliana) (UniProt Q6X7K1); assay: split reporter; BiFC (nYFP/cYFP) in transiently transfected Arabidopsis leaf mesophyll protoplasts, overnight incubation in darkness
T2 sequence: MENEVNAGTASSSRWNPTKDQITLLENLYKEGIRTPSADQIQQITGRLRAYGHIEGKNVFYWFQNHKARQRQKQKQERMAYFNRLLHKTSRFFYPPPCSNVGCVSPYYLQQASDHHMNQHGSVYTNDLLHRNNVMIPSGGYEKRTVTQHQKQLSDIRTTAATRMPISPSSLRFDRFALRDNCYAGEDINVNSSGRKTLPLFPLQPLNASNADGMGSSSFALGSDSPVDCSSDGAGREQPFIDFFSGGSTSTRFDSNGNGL

binding (EID1 (BiFC fusion)): binds
Molecule: ASK1 (BiFC fusion) (from UniProt Q39255 1-160)

binding [1]: binds
B1: WOX2-YFP-GR (protein, UniProt Q6X7K1 1-260)
chain: MENEVNAGTASSSRWNPTKDQITLLENLYKEGIRTPSADQIQQITGRLRAYGHIEGKNVFYWFQNHKARQRQKQKQERMAYFNRLLHKTSRFFYPPPCSNVGCVSPYYLQQASDHHMNQHGSVYTNDLLHRNNVMIPSGGYEKRTVTQHQKQLSDIRTTAATRMPISPSSLRFDRFALRDNCYAGEDINVNSSGRKTLPLFPLQPLNASNADGMGSSSFALGSDSPVDCSSDGAGREQPFIDFFSGGSTSTRFDSNGNGL

binding [2]: no binding
B2: EID1 (BiFC fusion) (protein, UniProt Q8LEA8 1-336)
chain: MAESVFSCIPEDVVFNIFFKLQDDPRNWARLACVCTKFSSIVRNVCCKTQCYSAIPTVISDLLPLPPSAAASASSSTAADSSLTPPGGWASLYKLAVCCPGLFHAGILLENSDFGLERELGPDQNLDPKPTTTDLALNDEEVSKPVGSGLETTSFWSLYDDLYTDTIPAPPPEDSIDDQEEEIETSEIRPGRDLPVRKRRKICRSLGSHLASGGWNLSREQGNKLLASRFRGDCLYICNWPGCIHVEEKRNYMLFRGVFKDFKRSRVWRTINDGNRSKTSGLKCAFCLCDETWDLHSSFCLRRVFGFHDDGEPVVRAYVCENGHVSGAWTALPLYT
